# Laboratory results reported in patent US12522827B2 (priority 2021, dated 2026).
# Some results were stated once for a whole list of compounds, not compound by compound. l = locked nucleic acid (LNA); d = 2'-deoxy (DNA)
# System: respiratory viruses
# Experiment: Anti respiratory virus activity of IBV-targeting LNAs (Example 8)
# Format: cell-based
# Settings: virus not stated
row,Substance,inhibition of viral replication [log 10]
1,"+C+A+ATAATTGTA+C+T+A+C (CAATAATTGTACTAC; antisense; sugars from the 5' end l3 d8 l4, backbone and methylation of C not given here) [IBV-LNA3.4]",≥ 1
2,"+C+A+ATGCAGATCG+A+A+T (CAATGCAGATCGAAT; antisense; sugars from the 5' end l3 d9 l3, backbone and methylation of C not given here) [IBV-LNA0.2]",≥ 1
3,"+C+A+C+AAAATGAA+G+G+C (CACAAAATGAAGGC; antisense; sugars from the 5' end l4 d7 l3, backbone and methylation of C not given here) [IBV-LNA4.4]",≥ 1
4,"+G+T+ACTACTCAT+G+G+T (GTACTACTCATGGT; antisense; sugars from the 5' end l3 d8 l3, backbone and methylation of C not given here) [IBV-LNA2.5]",≥ 1
